Data reported in patent US20070104714A1, “Composition and method for the treatment of cancer and other physiologic conditins based on modulation of the ppar-gamma pathway and her-kinase axis” (CEDARS-SINAI MEDICAL CENTER, priority 2003, published 2007).
For at least one compound, name, drawing or mass did not settle the structure.

Tested on: CD36 expression in THP-1 cells
Test: TPA-induced CD36 scavenger receptor expression in THP-1 cells by flow cytometry
Type: cell-based, human
Conditions: 20 μM, TPA 40 ng/ml
Procedure: Prostate carcinoma cell lines, 22Rv1 and LNCaP, and human acute monocytic leukemia (THP-1) cells were obtained from the American Type Culture Collection (Rockville, Md.) and maintained in RPMI 1640 medium supplemented with 10% FBS, 100 μg/ml penicillin and 100 μg/ml streptomycin (obtained from GIBCO; Grand Island, N.Y.). […] Second, the combination of PPARγ transactivation, together with protein kinase C activation by a phorbol ester, has been reported to induce the scavenger receptor CD36 in macrophages (Han and […], 2002). CD36 is documented as a PPARγ-regulated gene (Tontonoz et al., 1998). […] THP-1 cells were treated for 5 days with 200 μM etodolac (racemic mixture) and 20 μM troglitazone in the presence or absence of 40 ng/ml phorbol ester (TPA) for 48 hours. Cells were fixed and stained with unconjugated anti-CD36 and FITC conjugated anti-IgG and analyzed by flow cytometry. A population of 10,000 viable cells was analyzed for each treatment.

Q: How did the “CD36 expression as downstream indicator of PPARγ activation” value turn out when `Cc1c(C)c2c(c(C)c1O)CCC(C)(COc1ccc(CC3SC(=O)NC3=O)cc1)O2` (stereo not shown) [troglitazone] was run?
A: The value was “equivalent potency”.
